Data reported in US6846807B1, “Colorectal neoplasia prophylaxis” (Board of Regents, The University of Texas System, priority 2003, dated 2005).
At least one structure is not confirmed: it was looked up by name or label, or the drawing left a doubt. Some of these results come from one statement about several compounds together.

Key:
Smad3 mutant mice = assay: Colorectal tumor development in Smad3 mutant mice given antibiotics in drinking water; type: in vivo; settings: orally delivered in drinking water, started at 5 weeks of age; about 90% of controls develop colorectal cancer within seven months
Description: I. Orally-delivered aminoglycosides reduce development of colon cancer in animal models predisposed to colon neoplasia. Smad3 mutant and APC/MIN mice are fed on a standard laboratory diet, with aminoglycoside antibiotics added to the water. […] Metronidazole was diluted in sterile drinking water to a final concentration of 0.5 mg/ml. The same concentrations are used for either combined or separate drug trials.
Smad3 mutant mice are maintained in 129Sv strain; APC/MIN mice are maintained in C57BL/6J. Both Smad3 mutant and APC/MIN mice are started on antibiotics at 5 weeks of age (range: 4-6 weeks). Mice are monitored and scored for survival and visible rectal tumors. Mice are sacrificed when showing severe distress (typically rectal prolapse with significant dehydration,. hypokinesis, cachexia). At sacrifice mice are dissected and their overall state assessed. Large intestines were harvested, opened longitudinally, and tumor number, location, and size recorded.

[1] = test system: chick embryo chorioallantoic membranes (CAM); settings: cited from earlier work

| Molecule | Smad3 mice in which tumor development is prevented (Smad3 mutant mice) | angiogenin-induced angiogenesis / anti-angiogenic activity [1] |
| --- | --- | --- |
| NCC[C@H](O)C(=O)N[C@@H]1C[C@H](N)[C@@H](O[C@H]2O[C@H](CN)[C@@H](O)[C@H](O)[C@H]2O)[C@H](O)[C@H]1O[C@H]1O[C@H](CO)[C@@H](O)[C@H](N)[C@H]1O [amikacin] | over 90% | – |
| NC[C@H]1O[C@H](O[C@H]2[C@H](O)[C@@H](O[C@H]3O[C@H](CO)[C@@H](O)[C@H](N)[C@H]3O)[C@H](N)C[C@@H]2N)[C@H](O)[C@@H](O)[C@@H]1O [kanamycin] | over 90% | lack anti-angiogenic activity |
| CCN[C@@H]1C[C@H](N)[C@@H](O[C@H]2OC(CN)=CC[C@H]2N)[C@H](O)[C@H]1O[C@H]1OC[C@](C)(O)[C@H](NC)[C@H]1O [netilmicin] | over 90% | – |
| NC[C@@H]1O[C@H](O[C@H]2[C@@H](O)[C@H](O[C@@H]3[C@@H](O)[C@H](N)C[C@H](N)[C@H]3O[C@H]3O[C@H](CO)[C@@H](O)[C@H](O)[C@H]3N)O[C@@H]2CO)[C@H](N)[C@@H](O)[C@@H]1O [paromomycin] | over 90% | – |
| [H]/N=C(/N)N[C@H]1[C@H](O)[C@@H](O)[C@H](O[C@@H]2O[C@@H](C)[C@](O)(C=O)[C@H]2O[C@@H]2O[C@@H](CO)[C@H](O)[C@@H](O)[C@@H]2NC)[C@@H](N/C(N)=N\[H])[C@@H]1O [streptomycin] | over 90% | – |
| NC[C@H]1O[C@H](O[C@H]2[C@H](O)[C@@H](O[C@H]3O[C@H](CO)[C@@H](O)[C@H](N)[C@H]3O)[C@H](N)C[C@@H]2N)[C@H](N)C[C@@H]1O [tobramycin] | over 90% | – |
| gentamicin | over 90% | – |
